Patent US20110097324A1, “COMPOSITIONS AND METHODS FOR MODULATING NICOTINIC/NMDA RECEPTOR FUNCTION” (CENTRE FOR ADDICTION AND MENTAL HEALTH, priority 2008, published 2011)
No constants are given. Whether binding was seen depends on the method and setting. In cells and extracts the contact can be indirect. Some binding calls cover weakened binding; strength is not graded here.

Chains of the proteins cited; added tags and fusions are not shown. Residues count along the entry.
UniProt Q05941, residues 23-502: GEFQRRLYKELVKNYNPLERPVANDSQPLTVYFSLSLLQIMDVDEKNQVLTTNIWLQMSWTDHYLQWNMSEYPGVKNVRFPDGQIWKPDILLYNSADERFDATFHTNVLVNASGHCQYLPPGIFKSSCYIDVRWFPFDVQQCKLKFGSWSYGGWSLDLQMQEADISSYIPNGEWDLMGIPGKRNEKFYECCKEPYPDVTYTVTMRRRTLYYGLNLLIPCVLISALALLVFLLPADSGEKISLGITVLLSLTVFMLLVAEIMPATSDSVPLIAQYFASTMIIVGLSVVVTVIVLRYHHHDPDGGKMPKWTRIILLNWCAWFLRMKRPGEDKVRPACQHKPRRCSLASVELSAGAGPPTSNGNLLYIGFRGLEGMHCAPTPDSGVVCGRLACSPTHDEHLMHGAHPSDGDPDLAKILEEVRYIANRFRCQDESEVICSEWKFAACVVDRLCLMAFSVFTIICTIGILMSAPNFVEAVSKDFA

Key:
[1] = target: NR2A subunit of the NMDA glutamate receptor, solubilized from rat hippocampus (rat) (UniProt Q00959); test: co-immunoprecipitation with anti-NR2A antibody, hippocampal primary culture treated with choline (FIG. 2I)
[2] = target: NR2A subunit of the NMDA glutamate receptor, solubilized from rat hippocampus (rat) (UniProt Q00959); test: co-immunoprecipitation, rat hippocampus after 7 days of nicotine or saline (FIG. 7)
[3] = target: NR2A subunit of the NMDA glutamate receptor, solubilized from rat hippocampus (rat) (UniProt Q00959); test: co-immunoprecipitation, rat hippocampus (FIG. 7)
[4] = target: NR2A subunit of the NMDA glutamate receptor, solubilized from rat hippocampus (rat) (UniProt Q00959); test: co-immunoprecipitation, rat hippocampal tissue (FIG. 2A, 2I)
[5] = target: NR2A subunit of the NMDA glutamate receptor, solubilized from rat hippocampus (rat) (UniProt Q00959); test: co-immunoprecipitation, rat hippocampal tissue (FIG. 2A)

Measured: binding

α7 nicotinic acetylcholine receptor (α7-nAchR), solubilized from rat hippocampus (from UniProt Q05941 23-502)
binds: all assays above
